Source: PMC4546667
These are yes or no findings as the source states them, for the method shown. In cells and extracts the contact can be indirect. Some binding calls cover weakened binding; strength is not graded here. Sequences can lack the tags named with a protein.

The chains behind the UniProt entries cited, without tags or fusion partners. Where a name states a change or a piece, a line headed by the entry shows the natural chain unless it says otherwise. A line that says so, or that is headed by a name, gives the form on record, which may keep a tag or linker. Residues count along the entry.
A1AT-M (the wild-type form of alpha-1 antitrypsin) (P01009, residues 25-418): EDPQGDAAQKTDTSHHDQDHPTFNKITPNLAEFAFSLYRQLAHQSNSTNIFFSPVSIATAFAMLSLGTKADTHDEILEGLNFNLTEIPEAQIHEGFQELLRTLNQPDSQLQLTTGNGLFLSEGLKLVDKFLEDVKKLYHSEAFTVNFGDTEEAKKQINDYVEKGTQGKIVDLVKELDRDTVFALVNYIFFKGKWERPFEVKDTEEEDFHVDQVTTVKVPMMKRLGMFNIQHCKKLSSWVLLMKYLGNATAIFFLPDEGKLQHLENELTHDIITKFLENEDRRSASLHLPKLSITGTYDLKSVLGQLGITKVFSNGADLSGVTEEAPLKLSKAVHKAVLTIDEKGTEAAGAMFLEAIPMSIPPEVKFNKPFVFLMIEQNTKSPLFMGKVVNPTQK
A1AT-Z (the disease-causing E342K variant of alpha-1 antitrypsin) (P01009, form named): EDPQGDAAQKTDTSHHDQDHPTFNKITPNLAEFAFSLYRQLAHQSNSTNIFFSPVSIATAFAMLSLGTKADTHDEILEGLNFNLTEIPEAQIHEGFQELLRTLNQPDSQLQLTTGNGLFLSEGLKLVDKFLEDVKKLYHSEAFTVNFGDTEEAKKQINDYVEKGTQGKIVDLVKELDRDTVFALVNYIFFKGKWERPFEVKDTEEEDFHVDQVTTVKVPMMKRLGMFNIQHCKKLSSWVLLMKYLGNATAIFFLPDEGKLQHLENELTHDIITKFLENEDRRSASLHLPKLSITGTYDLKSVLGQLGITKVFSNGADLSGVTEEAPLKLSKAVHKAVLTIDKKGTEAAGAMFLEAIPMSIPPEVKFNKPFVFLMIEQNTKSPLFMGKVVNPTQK

Target: T1, FLAG-tagged full-length FBG1 (UniProt Q9UK22)
T1 sequence: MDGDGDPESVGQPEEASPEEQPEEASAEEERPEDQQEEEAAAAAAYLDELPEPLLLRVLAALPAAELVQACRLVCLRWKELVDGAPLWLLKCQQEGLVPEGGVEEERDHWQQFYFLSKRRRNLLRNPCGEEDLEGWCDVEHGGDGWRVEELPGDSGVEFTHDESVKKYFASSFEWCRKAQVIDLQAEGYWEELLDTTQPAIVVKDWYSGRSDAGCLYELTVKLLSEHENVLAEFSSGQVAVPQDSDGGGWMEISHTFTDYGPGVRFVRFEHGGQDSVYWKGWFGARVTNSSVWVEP
Assay: co-IP; Hepa1-6 cells co-transfected with FLAG-FBG1 or FLAG-FBG1ΔN (or empty pCMV) and A1AT variants; lysed 48 h later in FLAG lysis buffer (50mM Tris pH 7.4, 150mM NaCl, 1mM EDTA, 1% Triton X-100); anti-FLAG M2 affinity gel, 4°C, 2 hours; eluted with 3xFLAG peptide; blot with anti-A1AT

A1AT-M (the wild-type form of alpha-1 antitrypsin) (from UniProt P01009 25-418)
binding: binds weakly

A1AT-Z (the disease-causing E342K variant of alpha-1 antitrypsin) (from UniProt P01009 25-418)
binding: binds
